The inconclusive results got no clear call from the source; some entries with a clear call stand among them for comparison. Activity calls are given as the source filed them.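 How the source made its calls: active means compounds lowering cell ATP signal, with AC50 no higher than twice their own top valid dose; inconclusive means flat curve with 30 to 70% signal loss, or poor fit; inactive means the rest, including signal rises.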
Assay: viability loss in HEK293 kidney cells – cell-based, ATP luminescence, dry powder, set 19, cytotoxicity control, dose response (AID 1053141)
Conditions: HEK293T viability, CellTiter-Glo ATP luminescence, 72 h; at 50 µM (top of the series) unless noted

SMILES | activity change, negative = cytotoxicity
CO[C@H]1CN(C)C(=O)c2cc(Nc3c(NC4CCCCC4)c(=O)c3=O)ccc2OC[C@H](C)N(Cc2ccc(-c3ccccn3)cc2)C[C@@H]1C | inconclusive: -52.8%
CCCNC(=O)Nc1ccc2c(c1)OC[C@H](C)N(Cc1ccc(-c3ccccn3)cc1)C[C@H](C)[C@@H](OC)CN(C)C2=O | inactive: 12.5% [at 26 µM]
CO[C@H]1CN(C)C(=O)c2cc(NC(=O)NC(C)C)ccc2OC[C@H](C)N(C(=O)c2ccc(-c3ccccn3)cc2)C[C@@H]1C | inactive: -14%
CO[C@H]1CN(C)C(=O)c2cc(Nc3c(NC(C)C)c(=O)c3=O)ccc2OC[C@H](C)N(Cc2ccc(-c3ccccn3)cc2)C[C@@H]1C | inconclusive: -54.4%
